Results are given in words; binding and its absence hold for the method and conditions named. Some results given as binding are weak or reduced against the parent protein; the word gives no strength.
What was measured:
[1] = biological target: T1, recombinant human CD30 protein (UniProt P28908 19-385); assay: SPR, antibody immobilized, hCD30 as analyte
T1 chain: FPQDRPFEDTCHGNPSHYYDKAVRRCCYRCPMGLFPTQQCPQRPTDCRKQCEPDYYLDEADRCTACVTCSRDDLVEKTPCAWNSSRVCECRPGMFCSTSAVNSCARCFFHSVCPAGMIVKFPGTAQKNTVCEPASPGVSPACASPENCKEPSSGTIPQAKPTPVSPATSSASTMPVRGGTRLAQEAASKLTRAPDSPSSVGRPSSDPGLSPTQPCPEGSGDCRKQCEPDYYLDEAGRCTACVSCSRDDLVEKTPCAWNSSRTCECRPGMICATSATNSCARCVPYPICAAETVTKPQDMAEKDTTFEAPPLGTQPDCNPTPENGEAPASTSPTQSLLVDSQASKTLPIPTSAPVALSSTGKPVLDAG

[2] = biological target: T1, recombinant human CD30 protein; assay: SPR, antibody immobilized, hCD30 as analyte, 1:1 Langmuir fit

B1: Mouse Anti-Human CD30 Monoclonal Antibody (Clone 81316.11) (antibody, V domains shown)
VH: QVQLKESGPGLVAPSQSLSITCTVSGFSLTSYGVHWVRQPPGKGLEWLGVIWAGETINYNLALMSRLSISKDNSKSQVFLKMNSLQTEDTAMYYCARDQGEYGNYGWYFDVWGAGTTVTVSS
VL: DIQMTQTTSSLSASLGDRVTISCSASQGISNYLNWYQQKPDGTVKLLIYYTSSLHSGVPSRFSGSGSGTDYSLTISNLEPEDIATYYCQHYSKLPPTFGGGTKLEIKR
notes: It is a mouse monoclonal, and the isotype control used beside it is MsIgG1; also called anti-hCD30 antibody; recombinant hCD30 antibody
B1 was tested, and the binding [1] was “binds” and the binding [2] was “binds”.

Source: patent publication US12122842 (R AND D SYSTEMS, dated 2024)
